The source of these data is patent US9273015B2, “s-Triazine compounds, pharmaceutical compositions and methods of using the same” (NEW YORK UNIVERSITY, priority 2010, dated 2016).

For this series, the system named is E. coli D31. Briefly: Growth inhibition (broth microdilution), E. coli D31. The format is cell-based, Escherichia coli. The following applies: for E. coli HI: Table 3, ratio of HD50 to IC50; for HI: ratio of HD50 to MIC50, E. coli D31. The text has this:
The antimicrobial activity of each peptide can be tested following standard broth microdilution protocols recommended by the National Committee for Clinical Laboratory Standard. Multidrug-resistant Staphylococcus aureus strain (ATCC BAA-44) and Acinetobacter baumannii (ATCC BAA-747) can be used in this study, as well as Ampicillin- and streptomycin-resistant Escherichia coli (D31), obtained from the E. coli Genetic Resource Center (Yale University, New Haven, Conn.). Bacteria can be grown overnight in Tryptic Soy broth at 37° C. Then, cultures are diluted in Mueller-Hinton broth to a final concentration range of 2×10^4 to 2×10^5 CFU/ml. Bacterial inocula are incubated at 37° C. in phosphate-buffered saline (PBS) buffer (pH7.2) with various dilutions of peptide stock. The 18-hour absorbance data are used to calculate the percentage of inhibition for each sample by comparison with the absorbance of cultures without sample. Bacterial growth is measured by turbidity as optical density at 600 nm (OD600), using a Genesys 5 Spectrophotometer (Rochester, N.Y.) or equivalent instrument. All assays can be carried out in triplicate. The concentration of peptide that results in 50% inhibition of growth is recorded as the IC50. In addition the concentration of agents needed can be monitored to reduce the bacterial population by three logs, IC99.9. This is a more rigorous indicator of the amount needed to prevent an infection.
The antimicrobial activity of each triazine compound was tested by following standard broth microdilution protocols recommended by the National Committee for Clinical Laboratory Standard. All compounds were initially tested against Bacillus subtilis (ATCC 6633; Rockville, Md.). Bacteria were grown in Mueller Hinton Broth (MHB) at 37° C. for overnight. Then, cultures were diluted in MHB to a final concentration of 2×10^4 to 2×10^5 CFU/mL. Bacterial inocula were incubated at 37° C. in PBS buffer (pH 7.2) with varying concentrations of 2-fold dilution of triazine stocks. The 18-hour absorbance data were used to calculate the percent inhibition for each sample by comparing with the absorbance of cultures without triazine compounds. Bacterial growth was measured by turbidity as optical density at 600 nm using a Genesys 5 Spectrophotometer (Rochester, N.Y.).

For `CCCCN(CCCC)CCCNc1nc(NCCc2c[nH]c3ccccc23)nc(NCCc2c[nH]c3ccccc23)n1` [TZ-WK(Bu)2W], the “E. coli HI” value was determined as 4.3.

With `CCCCN(CCCC)CCCNc1nc(NCc2ccccc2)nc(Nc2cccc3ccccc23)n1` [TN2], the HI is listed as 31.1.

Take `NCCCCNc1nc(NCc2ccccc2)nc(NCc2cccc3ccccc23)n1` [TN5]: the HI stood at 35.26.

`CCCCN(CCCC)CCCNc1nc(NCc2ccccc2)nc(NCc2cccc3ccccc23)n1` [TN4]: the HI came out at 11.77.

`NCCCCNc1nc(NCc2ccccc2)nc(Nc2cccc3ccccc23)n1` [TN3]: the HI was determined as 22.5.

`N=C(N)NCCNc1nc(NCCc2c[nH]c3ccccc23)nc(NCCc2c[nH]c3ccccc23)n1` [TZ-WRW]: the “E. coli HI” value came out at 10.6.

As to `NCCCNc1nc(NCCc2c[nH]c3ccccc23)nc(NCCc2c[nH]c3ccccc23)n1` [TZ-WKW], the “E. coli HI” value was 14.1.
